According to paper PMC8773529 (Cancers, 2022):

How the values were obtained:
[1] = tested on: lipid metabolism proteins in RWPE-1 cells; assay: LC-MS proteome analysis, RWPE-1; type: cell-based, human; conditions: IC50 concentration
[2] = tested on: lipid metabolism proteins in PC3 cells; assay: LC-MS proteome analysis, PC3; type: cell-based, human; conditions: IC50 concentration

O=C(O)c1cn(C2CC2)c2cc(N3CCNCC3)c(F)cc2c1=O [Ciprofloxacin]
2,4-dienoyl-CoA reductase, mitochondrial (DECR) protein expression, RWPE-1 ([1]; control = 100%): 96.3 % of control | Acetyl-CoA acetyltransferase, mitochondrial (THIL/ACAT1) protein expression, RWPE-1 ([1]; control = 100%): 94.6 % of control | Acetyl-CoA carboxylase 2 (ACACB) protein expression, RWPE-1 ([1]; control = 100%): 89.3 % of control | Caveolin-1 (CAV1) protein expression, RWPE-1 ([1]; control = 100%): 92.5 % of control | Fatty acid synthase (FAS) protein expression, RWPE-1 ([1]; control = 100%): 94.5 % of control | NPC intracellular cholesterol transporter 2 (NPC2) protein expression, RWPE-1 ([1]; control = 100%): 91.2 % of control | Perilipin-3 (PLIN3) protein expression, RWPE-1 ([1]; control = 100%): 95.2 % of control | Phospholipid-transporting ATPase IA (AT8A1) protein expression, RWPE-1 ([1]; control = 100%): 121.2 % of control | ACACB protein intensity, RWPE-1 ([1]; Table S1, 72 h, control 49340): 44060.6 | NPC2 protein intensity, RWPE-1 ([1]; Table S1, 72 h, control 60306): 54999.1 | CAV1 protein intensity, RWPE-1 ([1]; Table S1, 72 h, control 64740): 59884.5 | AT8A1 protein intensity, RWPE-1 ([1]; Table S1, 72 h, control 98750): 119685 | DECR protein intensity, RWPE-1 ([1]; Table S1, 72 h, control 111503): 107377.4 | PLIN3 protein intensity, RWPE-1 ([1]; Table S1, 72 h, control 631231): 600932 | FAS protein intensity, RWPE-1 ([1]; Table S1, 72 h, control 823421): 778132.9 | 2,4-dienoyl-CoA reductase, mitochondrial (DECR) protein expression, PC3 ([2]; control = 100%): 82.7 % of control | Acetyl-CoA acetyltransferase, mitochondrial (THIL/ACAT1) protein expression, PC3 ([2]; control = 100%): 83.4 % of control | Acetyl-CoA carboxylase 2 (ACACB) protein expression, PC3 ([2]; control = 100%): 89.3 % of control | Caveolin-1 (CAV1) protein expression, PC3 ([2]; control = 100%): 89.2 % of control | Fatty acid synthase (FAS) protein expression, PC3 ([2]; control = 100%): 87.4 % of control | Fatty acid-binding protein 5 (FABP5) protein expression, PC3 ([2]; control = 100%): 92.4 % of control | NPC intracellular cholesterol transporter 2 (NPC2) protein expression, PC3 ([2]; control = 100%): 91.3 % of control | Perilipin-3 (PLIN3) protein expression, PC3 ([2]; control = 100%): 86.3 % of control | Phospholipid-transporting ATPase IA (AT8A1) protein expression, PC3 ([2]; control = 100%): 124.5 % of control | THIL protein intensity, PC3 ([2]; Table S1, 72 h, control 79046): 65924.4 | NPC2 protein intensity, PC3 ([2]; Table S1, 72 h, control 90108): 82268.6 | AT8A1 protein intensity, PC3 ([2]; Table S1, 72 h, control 115840): 144220.8 | DECR protein intensity, PC3 ([2]; Table S1, 72 h, control 192442): 159149.5 | ACACB protein intensity, PC3 ([2]; Table S1, 72 h, control 253760): 226607.7 | CAV1 protein intensity, PC3 ([2]; Table S1, 72 h, control 725820): 647431.4 | PLIN3 protein intensity, PC3 ([2]; Table S1, 72 h, control 960327): 828762.2 | FAS protein intensity, PC3 ([2]; Table S1, 72 h, control 1125936): 984068.1 | FABP5 protein intensity, PC3 ([2]; Table S1, 72 h, control 2099906): 1940313
